Measured values: patent US7074566
These are yes or no findings as the source states them, for the method shown. Some binding calls cover weakened binding; strength is not graded here.

Protein sequences, listed by entry. Tags and fused reporters are not part of them. Residues count along the entry.
UniProt P10275, residues 325-919: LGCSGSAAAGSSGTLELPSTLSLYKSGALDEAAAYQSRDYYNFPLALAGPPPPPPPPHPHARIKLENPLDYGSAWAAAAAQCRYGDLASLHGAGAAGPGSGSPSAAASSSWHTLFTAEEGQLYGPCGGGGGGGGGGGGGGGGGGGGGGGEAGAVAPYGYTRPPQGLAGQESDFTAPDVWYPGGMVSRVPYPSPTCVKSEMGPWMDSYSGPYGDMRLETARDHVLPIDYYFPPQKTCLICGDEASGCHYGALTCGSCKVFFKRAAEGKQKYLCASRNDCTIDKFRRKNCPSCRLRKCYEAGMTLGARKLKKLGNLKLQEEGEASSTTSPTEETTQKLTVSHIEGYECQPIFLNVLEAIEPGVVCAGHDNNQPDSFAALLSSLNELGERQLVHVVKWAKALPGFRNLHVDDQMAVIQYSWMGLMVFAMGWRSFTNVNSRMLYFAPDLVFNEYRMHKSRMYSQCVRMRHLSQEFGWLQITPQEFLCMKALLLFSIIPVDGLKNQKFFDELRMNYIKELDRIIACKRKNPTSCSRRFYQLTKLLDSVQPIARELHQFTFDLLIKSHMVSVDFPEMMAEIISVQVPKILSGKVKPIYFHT

Assays:
[1] = molecular target: human AR fragment, amino acids 325 to 919 (human) (UniProt P10275); assay: yeast two hybrid (figure legend, schematic of the AR)
[2] = molecular target: human AR fragment, amino acids 325 to 919 (human) (UniProt P10275); assay: yeast two hybrid screen with AR 325-919 as probe, 10^-6 M DHT, β-galactosidase assay

binding [1]: binds
binding [2]: binds
B1: HSRNAAM fragment, amino acids 271 to 433 (yeast two hybrid library clone, insert 986 bp to 2096 bp) (enzyme, UniProt P55345 271-433, looked up)
chain: FNLSALKSLAVKEFFSKPKYNHILKPEDCLSEPCTILQLDMRTVQISDLETLRGELRFDIRKAGTLHGFTAWFSVHFQSLQEGQPPQVLSTGPFHPTTHWKQTLFMMDDPVPVHTGDVVTGSVVLQRNPVWRRHMSVALSWAVTSRQDPTSQKVGEKVFPIWR
